Test results published in publication PMC12442378, “SmsB-SmsC machinery in Thermococcus kodakarensis functions as an archaeal scaffold mediating Fe-S cluster assembly” (Applied and Environmental Microbiology, 2025).
No constants are given. Whether binding was seen depends on the method and setting. For part of these data: Binding seen in cells or lysates may run through a third protein. Some entries that bind do so weakly or less than the wild type. For part of these data: Tags and fused reporters may be left off the sequences shown. Each block holds one binder with its values, some of them ahead of it.

Assays:
[1] = biological target: T1, Tk-SmsB (TK0730 protein) with a 6x His tag at its N-terminus (Thermococcus kodakarensis) (UniProt Q5JG67); assay: SEC; gel filtration of Tk-CSD alone and of its mixtures with Tk-SmsB, Tk-SmsC or both, 30 uM of each protein; fractions analysed by SDS-PAGE; both purified
T1 sequence: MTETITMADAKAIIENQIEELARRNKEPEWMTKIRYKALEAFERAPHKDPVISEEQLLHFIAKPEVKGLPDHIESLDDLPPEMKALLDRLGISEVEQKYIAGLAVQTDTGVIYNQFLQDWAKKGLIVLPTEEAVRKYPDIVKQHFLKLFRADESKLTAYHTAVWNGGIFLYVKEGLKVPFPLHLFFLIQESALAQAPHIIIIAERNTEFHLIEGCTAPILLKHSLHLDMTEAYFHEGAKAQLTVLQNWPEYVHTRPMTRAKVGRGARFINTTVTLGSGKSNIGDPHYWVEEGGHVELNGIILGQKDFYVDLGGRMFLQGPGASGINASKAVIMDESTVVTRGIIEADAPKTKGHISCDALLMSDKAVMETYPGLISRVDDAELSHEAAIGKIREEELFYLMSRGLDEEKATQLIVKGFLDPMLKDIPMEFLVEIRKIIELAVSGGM

[2] = biological target: T2, Tk-SmsB2C2 complex (Thermococcus kodakarensis) (UniProt Q5JG67+Q5JG66); assay: as above
T2 sequence 1: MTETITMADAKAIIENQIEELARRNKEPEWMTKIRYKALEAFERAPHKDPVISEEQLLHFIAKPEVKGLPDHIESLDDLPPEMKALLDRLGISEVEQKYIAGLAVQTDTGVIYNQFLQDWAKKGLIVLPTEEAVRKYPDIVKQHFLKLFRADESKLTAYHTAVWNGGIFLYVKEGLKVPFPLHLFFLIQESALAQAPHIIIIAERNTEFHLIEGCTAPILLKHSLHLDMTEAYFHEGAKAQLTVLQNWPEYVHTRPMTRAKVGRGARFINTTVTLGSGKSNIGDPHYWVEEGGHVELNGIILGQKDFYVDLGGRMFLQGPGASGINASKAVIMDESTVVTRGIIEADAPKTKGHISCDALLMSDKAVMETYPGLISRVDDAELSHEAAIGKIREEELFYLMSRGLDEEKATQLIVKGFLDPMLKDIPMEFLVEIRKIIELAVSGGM
T2 sequence 2: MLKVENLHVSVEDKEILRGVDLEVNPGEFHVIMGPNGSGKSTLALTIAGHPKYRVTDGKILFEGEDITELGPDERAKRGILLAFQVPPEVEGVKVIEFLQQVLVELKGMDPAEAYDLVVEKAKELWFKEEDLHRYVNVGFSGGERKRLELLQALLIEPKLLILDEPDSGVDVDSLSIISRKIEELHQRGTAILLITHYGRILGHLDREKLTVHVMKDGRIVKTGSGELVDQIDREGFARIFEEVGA

[3] = biological target: T3, Tk-SmsC (TK0731 protein), recombinant (Thermococcus kodakarensis) (UniProt Q5JG66); assay: as above
T3 sequence: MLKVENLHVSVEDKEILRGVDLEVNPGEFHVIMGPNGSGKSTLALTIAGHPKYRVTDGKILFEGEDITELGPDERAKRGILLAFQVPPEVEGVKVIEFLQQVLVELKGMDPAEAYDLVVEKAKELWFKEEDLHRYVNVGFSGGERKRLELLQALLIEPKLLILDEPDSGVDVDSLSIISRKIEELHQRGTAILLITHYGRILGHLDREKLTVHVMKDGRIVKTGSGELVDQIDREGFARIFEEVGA

[4] = biological target: T1, Tk-SmsB (TK0730 protein) with a 6x His tag at its N-terminus (Thermococcus kodakarensis); assay: pull-down; affinity chromatography: mixture of Tk-CSD and His-tagged Tk-SmsB (30 uM each, 200 uL) on a His GraviTrap column; wash and eluate analysed by SDS-PAGE; both purified
[5] = biological target: T1, Tk-SmsB (TK0730 protein) with a 6x His tag at its N-terminus (Thermococcus kodakarensis); assay: pull-down; purified His-tagged Tk-SmsB (100 ug, with or without equimolar Tk-SmsC) as bait, KU216 cell lysate (10 mg protein) as prey; 60 C for 30 min; His GraviTrap, washes with 20 and 50 mM imidazole, elution with 500 mM imidazole; SDS-PAGE; only the target purified
[6] = biological target: T3, Tk-SmsC (TK0731 protein), recombinant (Thermococcus kodakarensis); assay: SEC; Superdex 200 Increase 10/300 GL; 50 mM HEPES pH 7.5, 0.15 M NaCl; Tk-SmsB 40 uM alone, Tk-SmsC 72 uM alone, or mixture of 40 uM each; peak fraction analysed by SDS-PAGE and band densitometry; both purified

B1: Tk-CSD (cysteine desulfurase of T. kodakarensis, TK1990 protein) (enzyme, Thermococcus kodakarensis, UniProt Q5JIJ0 1-399, looked up)
chain: MKIPDDIRKDIPLTSEVIYFDNTATSLTPKPVIEAMDEYYLKYRANVHRGVHRLSQIATHKYEESRKVVADFINAKFEEIVFTKNTSESLNLVALGLEHIFEKGDKIVTTPYEHHSDLLPWQRLAKKKGLRLEFIEGDLEGNLDLADAEKKIKGAKLVAVQHVSNALGVIHEVEELGKMAKEEGAIFVVDAAQSAGHMEVDVKKLYADFLGFSGHKGPMGPTGIGVLYINSEFFDVFEPPLIGGGTIEDVDLDSYKLAEPPERFEAGTPNIGGAIGLAAGIRYIERIGIEKIEKQEHKLVKRTTEGLDELEVPWYGPRNLKKHAGVVSFNVPPLHPHDVAAILDEHNIMVRSGHHCALPAMKKLGVEGTVRASFHVYNSVEEVETFLSVMENLIRGLRG
notes: cysteine desulfurase (SufS homolog) of Thermococcus kodakarensis, locus TK1990; coding region amplified from genomic DNA of strain KU216; theoretical monomer mass 44.4 kDa; Cloned NheI-EcoRI into pET-21a(+); Homodimer by gel filtration; source: E. coli BL21-CodonPlus(DE3)-RIL (pET1990), purified (heat treatment, anion exchange, gel filtration)
binding [1]: no binding (tested: 30 µM of each protein)
binding [2]: no binding (tested: 30 µM of each protein)
binding [3]: no binding (tested: 30 µM of each protein)
binding [4]: no binding (tested: 30 µM of each protein)

binding [5]: binds
B2: Tk-SmsC, endogenous in the cell-free extract of T. kodakarensis (protein, UniProt Q5JG66 1-246)
chain: MLKVENLHVSVEDKEILRGVDLEVNPGEFHVIMGPNGSGKSTLALTIAGHPKYRVTDGKILFEGEDITELGPDERAKRGILLAFQVPPEVEGVKVIEFLQQVLVELKGMDPAEAYDLVVEKAKELWFKEEDLHRYVNVGFSGGERKRLELLQALLIEPKLLILDEPDSGVDVDSLSIISRKIEELHQRGTAILLITHYGRILGHLDREKLTVHVMKDGRIVKTGSGELVDQIDREGFARIFEEVGA

binding [6]: no binding (tested: 72 µM)
B3: Tk-SmsC (TK0731 protein), recombinant (enzyme, Thermococcus kodakarensis, UniProt Q5JG66 1-246, looked up)
chain: MLKVENLHVSVEDKEILRGVDLEVNPGEFHVIMGPNGSGKSTLALTIAGHPKYRVTDGKILFEGEDITELGPDERAKRGILLAFQVPPEVEGVKVIEFLQQVLVELKGMDPAEAYDLVVEKAKELWFKEEDLHRYVNVGFSGGERKRLELLQALLIEPKLLILDEPDSGVDVDSLSIISRKIEELHQRGTAILLITHYGRILGHLDREKLTVHVMKDGRIVKTGSGELVDQIDREGFARIFEEVGA
notes: SmsC (SufC homolog, ABC-type ATPase) of Thermococcus kodakarensis, locus TK0731; coding region amplified from genomic DNA of strain KU216; theoretical mass 27.5 kDa; Cloned NdeI-BamHI into pET-21a(+); Monomer by gel filtration; source: E. coli BL21-CodonPlus(DE3)-RIL (pET0731), purified (heat treatment, anion exchange, gel filtration)
